According to PubChem BioAssay AID1347426 (Functional Genomics Laboratory (NCATS/FGL), 2020):
Screen size: about 31,000 sequences; about 1,400 (4.5%) were called active.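 How the source made its calls: active means median seed-adjusted z-score above 1 or below -1; inactive means the rest.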 This is one part of the list.

test: Novel Modifiers of Survival Motor Neuron (SMN) Protein: Gene Identification via Genome-wide siRNA Screen; conditions: HEK293T SMN2-luciferase reporter, siRNA knockdown, 72 h; actives lie on both sides;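 further: luminescence tracks full-length SMN protein made from the SMN2 reporter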
Method in brief: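 Genome-wide siRNA screen (10418 genes, 3 siRNAs each, 1 pmol per well) by reverse transfection in HEK293T cells stably carrying an SMN2-luciferase reporter; luminescence after 72 hours, normalized to negative-control siRNA, log10-transformed, MAD-scored.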

Sequence	median seed-adjusted z-score
CCGUGACCAAUGUCAAUGATT against CYP27C1	inactive: 0.0462
CCUCCCACCUGAAUGAUCATT against ZIK1	inactive: -0.0627
CAAUUACAACGGAGUCAAATT against REG1A	inactive: 0.596
GCUCUGUGAUACCCAAUAATT against TK2	inactive: 0
CGAAGUACAUUGGAACGUATT against LRRC3	inactive: -0.0448
GGCACAACAGAGUUAUGAATT against FNBP1L	inactive: -0.0815
GGAGUACGCUCAACAAGAUTT against CNP	inactive: -0.116
CAAACGUGGACUGUCCAAATT against CA4	inactive: 0.0549
CUAUAUCUCCAACACUUUUTT against SMARCD3	inactive: 0.247
GAAUAACCGUAAACCAGAUTT against MEF2C	inactive: -0.632
CAGGGAAAAGUGACAGUGATT against PPP1R14C	inactive: -0.316
GCCUCGUCACAACAACAGATT against IL2RA	inactive: 0.587
AGGAGCACCUGAAGAAAUCTT against PDLIM7	inactive: 0.548
AUAAAUUCCUGAUUGCUAATT against CXCL6	inactive: 0.802
GGACAAGGAGAACAUAUUUTT against ZNF775	inactive: 0.00364
AGGUGUUCAACGACAUGAATT against CFL1	inactive: 0.685
GGAAACCUCCAGUUCCGUUTT against UBA2	inactive: 0.694
UAACUUCGAUGACACCAUUTT against TXNDC5	inactive: -0.753
CAACAUGCCCAUUCGCUUUTT against ADIPOQ	inactive: 0.557
GGAUGUUAAUAAUCAGUUATT against BRDT	inactive: -0.357
GGAGAUCUUGCAUCGAGAATT against ATP2C1	inactive: -0.112
AGUGGGUGCUGAACCAUGATT against FES	inactive: 0.402

Sequence	median seed-adjusted z-score
GAUACUGACUACGACAAUUTT against PAEP	inactive: -0.0632
AGGAAUUCAUGGACAAGAATT against HNMT	inactive: 0.336
GUAAACCACCUGCACCUAATT against TIAL1	inactive: -0.985
GGGUGUAAUUCAUAAGGGUTT against PSMD1	active: -1.61
CAUGGGACGUGUGAACUAUTT against GLB1	inactive: -0.543
GCUCUUUGAGCGCAUGUUATT against CAPN5	inactive: 0.535
GGACCUCGGUAAUAUGGAATT against ALCAM	inactive: -0.743
GGCGCAAACGGAAACAGCATT against SRPK3	inactive: -0.643
GGUGAACCUUAGUACCUAATT against TP53	inactive: 0.214
CCCUUUCAGUGCAACGAGUTT against ZNF2	inactive: -0.119
GAAAUGACAUUAGCUGAUUTT against CLIC4	inactive: -0.498
GGCUCAACUAUGACCGGAATT against PPFIA3	inactive: -0.0669
GGUCUACAGUAAGCGGUCATT against SNRNP70	inactive: -0.405
GCCUGUAUGUUUAUGGAGATT against LACE1	inactive: 0.166
GGCACAGUACGAUGACAUUTT against KRT86	inactive: -0.689
CCACUUACCUUAUGUCAGUTT against CD27	inactive: 0.5
GGAGCUAUGAGGAUUUCAATT against HSD3B7	inactive: -0.0819
CCAUUAUCCGGGACUUCUATT against CLDN3	inactive: -0.0833
GGUUCCACCUGAAUGAGCATT against CAPNS1	inactive: 0.35
GGGCUUCAACGAGUACUUUTT against PRDM16	inactive: 0.185
GGUAAUGACUCCACAGGGATT against SNRPN	inactive: -0.571
GAUAGACCCAGAUAUGUCATT against TAF2	inactive: -0.243

Sequence	median seed-adjusted z-score
GGAUCUGACGGGUGACAAATT against SPAG9	inactive: 0.0795
GGGUAACAUUUGUCGAUCATT against ACP1	inactive: -0.277
GGACUACAAAGUCGACCAATT against NDUFB10	inactive: -0.39
CCCUGCUGCUUUGCCUACATT against CCL5	inactive: 0.11
GAAUCUUGAUGAGUCUAUATT against KIF6	inactive: -0.0396
GGAUAAGGACGACCAGAUUTT against HPCAL4	inactive: 0.282
GUUUCGAUUAUAAAGAUCATT against CYP2C19	inactive: -0.0674
AGAUAGCCGCUUACAGAAATT against NEFH	inactive: 0.688
GAGAAAGGCUUGUAUAGGATT against FKBP5	inactive: -0.598
CGGCAUUUGUAGUACUAAUTT against GPR155	inactive: 0.0681
GGAAAGUUGAUUUUUAUGATT against MS4A6E	inactive: -0.341
UGAACCUUGUGAUAGAUGATT against SNRPG	active: -3.09
CAAGCUAGAGAUUCGCUAUTT against CXXC1	inactive: -0.841
AAUCAUCGGUUAUAAACCATT against ZNF585B	inactive: 0.158
CAAUGGUCUUAAGCCCAUUTT against GLMN	inactive: 0
GGAACGCAGUCGGAUCUCATT against RHOU	active: -1.44
AGACAUCAAGUCCCAUUAUTT against CIB1	inactive: 0.14
GUACAGGAAAGAUUUUAUATT against OTUD4	inactive: 0.167
GGCCUUUCACCAUCCAUGATT against MICAL2	inactive: -0.0224
GGAUUCAGACCGCAAAUAUTT against TPM2	inactive: 0.305
AAACUUCACUGUUGCCUUUTT against NAPSA	inactive: -0.336
CAGUAUGCCUGAUCCAGUATT against PCM1	inactive: -0.00218

Sequence	median seed-adjusted z-score
GAUUAUCGAGGUACAUGUUTT against DNAJA4	inactive: 0.145
CGGAGUUCAUUAUGCUGAATT against ELAC2	inactive: 0.016
CAACAAGUCUAACCUCAUUTT against ZNF154	inactive: 0
GACAGUCGGUUUUCCCAUUTT against LGALS3	inactive: 0.14
GGACUAAGAAUGAAGAGUUTT against ZSCAN16	inactive: -0.274
GCAAUGAUUUAUACCAUGATT against ATP5B	inactive: 0.393
GCAUGUACCUGGUAUCUCUTT against ITIH1	inactive: 0.0403
GCCUCUCUGCAAUGCGUGATT against KLK14	inactive: -0.0998
GCUUAUACAUUCCGAUGAATT against PTPRZ1	active: 1.73
GGCGAAGAGGGAUCAAGUATT against ZNF24	inactive: 0.388
GGGUGCCUAUCUAAGUGGATT against HSPB7	inactive: -0.288
GGAAUCUGACCUAACCUUUTT against PDXDC1	inactive: 0.665
GGCUUAGCUCUCAUGAUUATT against PCDHA8	inactive: 0
CUUCAUCGAUAAUUCCACATT against ELOVL3	inactive: 0
CCAUGUUAAAGAUGGGUUUTT against DDX59	inactive: -0.859
GUACCUUUCGAGAAGAUUATT against NADK	inactive: -0.201
GCCCAAAAGAGUCUAGUGATT against RREB1	inactive: -0.414
GGCAACCACUCUUCACCAATT against B4GALT2	inactive: -0.0367
CAAUGCAUUUAACUCGUUATT against SLC25A12	inactive: -0.275
CCUCCUCAAAGACAACCGATT against EMR3	inactive: 0.169
CUUGGUGCCUGGACACUAATT against CDC23	inactive: 0.0112
GGUGGAAUCCUACUCAGAATT against UBE2R2	inactive: 0

Quoted at random: 4 entries already listed, in no set order.
Sequence	median seed-adjusted z-score
GAUUAUCGAGGUACAUGUUTT against DNAJA4	inactive: 0.145
GCCCAAAAGAGUCUAGUGATT against RREB1	inactive: -0.414
GCCUCUCUGCAAUGCGUGATT against KLK14	inactive: -0.0998
GCAUGUACCUGGUAUCUCUTT against ITIH1	inactive: 0.0403

Following part:

Sequence	median seed-adjusted z-score
GUCUCAGCAUUGAUCGAUATT against AGTR1	inactive: 0.106
CUCCGUUCCUGGUGUAUAATT against CLIC2	inactive: -0.0124
GAACUGCAGCAAUCACAAATT against HYAL1	inactive: -0.163
GGCUUCUUGUCCAACCCUATT against CILP	inactive: 0.0436
GACCGGACUCUGACACCAATT against MSC	inactive: -0.208
AGGAAAUUCUGGGUCUUGATT against MSRA	inactive: -0.0316
GAUUCACAUUAACCAUAAATT against CRHBP	inactive: -0.0443
GCCCUGUGCUAUCAGAGGATT against SPIB	inactive: 0.0726
ACCUGUCCUUCGGCCUGUATT against HAS3	inactive: -0.179
GGGUAGCUUUGAGGAGGAUTT against SNX33	inactive: -0.246
CGUGGACCACUAUCCCAUUTT against RNF123	inactive: 0
CGCAUCCAAGAGUACCUUUTT against ZNF229	inactive: -0.497
CCAAGAAGAUGAGGCUAAATT against GABRA2	inactive: -0.272
GAAUAUAUCUUAUCGCUAATT against TAAR1	inactive: 0.0724
ACAUUGUGGUAGCCUUGUATT against LYN	inactive: -0.178
GGAGAAGAUUGACAGCAUUTT against STX17	inactive: 0.00965
GGUUACUGGUAGGAAUAAATT against TGFA	inactive: -0.22
CGAUUAGUGUCAAAGGCUUTT against MMP7	inactive: 0.0315
CCUUGAUAGAUGUUACCAATT against ASAH1	inactive: 0.421
